# The list does not hold the whole screen: it is rich in T/C values a quarter to a half above the control, in often repeated tests (any T/C) and in doses without a T/C. Further doses and runs are listed elsewhere. T/C is the treated group as % of the vehicle group. Some doses have a count of surviving animals in place of a T/C: the source files T/C as zero there, which appears to mark a toxic dose or a test without result, not a measured value. Some doses without a T/C left all or most animals alive at the check, yet need not have been tolerated: the source hardly ever lists a survival T/C far under the control, and the zero likely stands for such cases as well. Counts of survivors are from the toxicity check (mostly the fifth day) where no day follows; animals may have died later. Schedules are NCI's codes, taken here to give the interval after Q, in days (D) or hours (H), and the number of doses after X. Some structures stand for samples that the source files as different forms (salt, stereo form or complex); doses refer to the form tested. Some entries hold several experiments; the results are listed from low to high. For survival time, the PubChem record calls one and a half times the control and up active, and a quarter to a half above the control has no call in these data; cut-offs in other NCI protocols can differ. Some T/C values are followed by the survivors on the day toxicity was checked, most often the fifth; without a count, all were alive then.
# System: L1210 leukemia ip in BDF1 mice, survival T/C
# Assay: NCI In Vivo Anticancer Drug Screen. Data for tumor model L1210 Leukemia (intraperitoneal) in B6D2F1 (BDF1) mice
# Settings: T/C endpoint: mean survival time, higher T/C = longer survival
# [1] = dose: 100.0 mg/kg/injection, schedule: Q04DX002 (ip), vehicle: saline with Tween-80
# [2] = dose: 200.0 mg/kg/injection, schedule: Q04DX002 (ip), vehicle: saline with Tween-80
# [3] = dose: 400.0 mg/kg/injection, schedule: Q04DX002 (ip), vehicle: saline with Tween-80
# [4] = dose: 300.0 mg/kg/injection, schedule: Q01DX001 (ip), vehicle: other
compound,measurement,setting,value
COC(=O)C12OCC34C(CC5C(C)=C(O)C(=O)CC5(C)C3C(O)C1O)OC(=O)C(OC(=O)C=C(C)C)C24 (stereo unspecified),survivor count,"dose: 6.25 mg/kg/injection, schedule: Q04DX002 (ip), vehicle: saline with Tween-80",1 of 3
same,survivor count,"dose: 12.5 mg/kg/injection, schedule: Q04DX002 (ip), vehicle: saline with Tween-80",0 of 3
same,survivor count,"dose: 25.0 mg/kg/injection, schedule: Q04DX002 (ip), vehicle: saline with Tween-80",0 of 3
same,survivor count,[1],0 of 3
same,survivor count,[2],0 of 3
same,survivor count,[3],0 of 3
O=C(NCCBr)c1ccc(N=Nc2ccccc2)cc1,survivor count,"dose: 100.0 mg/kg/injection, schedule: Q04DX003 (ip), vehicle: Klucel (hydroxypropylcellulose) (HPC)",3 of 6
same,survivor count,"dose: 200.0 mg/kg/injection, schedule: Q04DX003 (ip), vehicle: Klucel (hydroxypropylcellulose) (HPC)",0 of 6
same,survivor count,"dose: 400.0 mg/kg/injection, schedule: Q04DX003 (ip), vehicle: Klucel (hydroxypropylcellulose) (HPC)",0 of 6
O=C(/C=C/CBr)NC(Cc1ccccc1)C(=O)O (stereo unspecified),survivor count,"dose: 150.0 mg/kg/injection, schedule: Q01DX001 (ip), vehicle: other",1 of 6
same,survivor count,[4],0 of 6
CCCCCP(=O)(CCCCC)CCCCC,survivor count,[2],0 of 3
same,survivor count,[3],0 of 3
O=NN1CCOCC1,survivor count,"dose: 100.0 mg/kg/injection, schedule: Q04DX002 (ip), vehicle: saline",3 of 3
same,survivor count,"dose: 200.0 mg/kg/injection, schedule: Q04DX002 (ip), vehicle: saline",3 of 3
same,survivor count,"dose: 400.0 mg/kg/injection, schedule: Q01DX001 (ip), vehicle: saline",1 of 4
same,survivor count,"dose: 400.0 mg/kg/injection, schedule: Q04DX002 (ip), vehicle: saline",2 of 3
O=C1C(NCc2c(O)ccc3ccccc23)CON1C(c1ccccc1)(c1ccccc1)c1ccccc1 (stereo unspecified),survivor count,"dose: 150.0 mg/kg/injection, schedule: Q04DX003 (ip), vehicle: saline",6 of 6
CN1CCN=C1c1ccc(NC(=O)Nc2ccc(NC(=O)Nc3ccc(C4=NCCN4C)cc3)cc2)cc1,T/C,"dose: 22.0 mg/kg/injection, schedule: Q01DX009 (ip), vehicle: saline",125 % of control
same,T/C,"dose: 33.0 mg/kg/injection, schedule: Q01DX009 (ip), vehicle: saline",144 % of control [5 of 6 alive]
same,survivor count,[4],0 of 6
C=C[CH2][Sn]([Br])([c]1ccccc1)[c]1ccccc1,survivor count,"dose: 6.25 mg/kg/injection, schedule: Q01DX009 (ip), vehicle: saline with Tween-80",2 of 6
same,survivor count,[1],0 of 3
same,survivor count,[2],0 of 3
same,survivor count,[3],0 of 3
ClCCn1c(CCl)nc2ccc(Cl)cc21,survivor count,"dose: 100.0 mg/kg/injection, schedule: Q01DX009 (ip), vehicle: Klucel (hydroxypropylcellulose) (HPC)",0 of 6
same,survivor count,"dose: 200.0 mg/kg/injection, schedule: Q01DX009 (ip), vehicle: Klucel (hydroxypropylcellulose) (HPC)",0 of 6
same,survivor count,"dose: 400.0 mg/kg/injection, schedule: Q01DX009 (ip), vehicle: Klucel (hydroxypropylcellulose) (HPC)",0 of 6
COc1cc2c[n+](C)c3c4cc(OC)c(OC)cc4ccc3c2cc1OC,T/C,"dose: 34.0 mg/kg/injection, schedule: Q01DX009 (ip), vehicle: saline",132 % of control
same,T/C,"dose: 50.0 mg/kg/injection, schedule: Q01DX009 (ip), vehicle: saline",131 % of control
same,T/C,"dose: 52.0 mg/kg/injection, schedule: Q01DX009 (ip), vehicle: saline",130 % of control
same,T/C,"dose: 80.0 mg/kg/injection, schedule: Q01DX009 (ip), vehicle: saline",136 % of control
same,T/C,"dose: 100.0 mg/kg/injection, schedule: Q01DX009 (ip), vehicle: saline",134 % of control
same,T/C,"dose: 100.0 mg/kg/injection, schedule: Q01DX009 (ip), vehicle: water",128 % of control
same,T/C,"dose: 120.0 mg/kg/injection, schedule: Q01DX009 (ip), vehicle: saline",138 % of control
same,survivor count,"dose: 200.0 mg/kg/injection, schedule: Q01DX009 (ip), vehicle: water",2 of 6 and 3 of 6
same,survivor count,"dose: 270.0 mg/kg/injection, schedule: Q01DX009 (ip), vehicle: saline",5 of 6
same,survivor count,"dose: 400.0 mg/kg/injection, schedule: Q01DX009 (ip), vehicle: saline",6 of 6
same,survivor count,"dose: 400.0 mg/kg/injection, schedule: Q01DX009 (ip), vehicle: water",0 of 6
same,T/C,"dose: 400.0 mg/kg/injection, schedule: Q04DX003 (ip), vehicle: water",134 % of control
same,survivor count,"dose: 666.0 mg/kg/injection, schedule: Q04DX003 (ip), vehicle: water",3 of 6

# From PubChem BioAssay AID248 (DTP/NCI, 2004)
